According to PMC10229228, “Structural insights into a regulatory mechanism of FIR RRM1–FUSE interaction”:
Residue numbers refer to the chain shown, from its start. The exact form of at least one protein or probe is not confirmed. At least one verdict was read from the data and is not stated in words by the source. Protein sequences can lack the tags named with them.

Legend:
FIR RRM1-2 Y115F = test system: T1, FIR RRM1-2 Y115F; assay: ITC; conditions: ITC: 25 mM HEPES pH 7.5, 150 mM NaCl, 0.5 mM TCEP, 20 C, protein 160-240 uM titrated into ssDNA 40-50 uM, recombinant protein, residues 101-293, protein details: N-terminal His6, removed by TEV, single-stranded DNA
T1 sequence (looked up): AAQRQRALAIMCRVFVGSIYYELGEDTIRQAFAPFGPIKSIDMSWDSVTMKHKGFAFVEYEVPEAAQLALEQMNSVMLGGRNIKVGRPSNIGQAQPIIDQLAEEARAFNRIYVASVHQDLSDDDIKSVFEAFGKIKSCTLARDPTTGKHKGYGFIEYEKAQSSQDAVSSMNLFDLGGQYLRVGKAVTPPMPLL

FIR RRM1-2 WT = test system: T2, FIR RRM1-2 WT; assay: ITC; conditions: range given for the four non-preferred fragments; ITC: 25 mM HEPES pH 7.5, 150 mM NaCl, 0.5 mM TCEP, 20 C; protein 160-240 uM titrated into ssDNA 40-50 uM; recombinant protein; residues 101-293; protein details: N-terminal His6, removed by TEV; single-stranded DNA
T2 sequence (looked up): T1 sequence (looked up) with F15Y

[1] = range given for the four non-preferred fragments

Sequence | binding result (FIR RRM1-2 Y115F; range, virtually same as TTATTTT) | binding result (FIR RRM1-2 Y115F; range, virtually same as TTGTTTT) | binding result (FIR RRM1-2 Y115F; [1]) | binding result (FIR RRM1-2 WT)
TTGTTTT | binds |  |  | 
TTATTTT |  | binds |  | 
TCATTTT |  |  | binds | binds
TGATTTT |  |  | binds | binds
TAATTTT |  |  |  | binds
